Assay results: paper PMC9450262

By UniProt entry, the sequences of proteins in these tests, tags left out.
UniProt Q80SY4: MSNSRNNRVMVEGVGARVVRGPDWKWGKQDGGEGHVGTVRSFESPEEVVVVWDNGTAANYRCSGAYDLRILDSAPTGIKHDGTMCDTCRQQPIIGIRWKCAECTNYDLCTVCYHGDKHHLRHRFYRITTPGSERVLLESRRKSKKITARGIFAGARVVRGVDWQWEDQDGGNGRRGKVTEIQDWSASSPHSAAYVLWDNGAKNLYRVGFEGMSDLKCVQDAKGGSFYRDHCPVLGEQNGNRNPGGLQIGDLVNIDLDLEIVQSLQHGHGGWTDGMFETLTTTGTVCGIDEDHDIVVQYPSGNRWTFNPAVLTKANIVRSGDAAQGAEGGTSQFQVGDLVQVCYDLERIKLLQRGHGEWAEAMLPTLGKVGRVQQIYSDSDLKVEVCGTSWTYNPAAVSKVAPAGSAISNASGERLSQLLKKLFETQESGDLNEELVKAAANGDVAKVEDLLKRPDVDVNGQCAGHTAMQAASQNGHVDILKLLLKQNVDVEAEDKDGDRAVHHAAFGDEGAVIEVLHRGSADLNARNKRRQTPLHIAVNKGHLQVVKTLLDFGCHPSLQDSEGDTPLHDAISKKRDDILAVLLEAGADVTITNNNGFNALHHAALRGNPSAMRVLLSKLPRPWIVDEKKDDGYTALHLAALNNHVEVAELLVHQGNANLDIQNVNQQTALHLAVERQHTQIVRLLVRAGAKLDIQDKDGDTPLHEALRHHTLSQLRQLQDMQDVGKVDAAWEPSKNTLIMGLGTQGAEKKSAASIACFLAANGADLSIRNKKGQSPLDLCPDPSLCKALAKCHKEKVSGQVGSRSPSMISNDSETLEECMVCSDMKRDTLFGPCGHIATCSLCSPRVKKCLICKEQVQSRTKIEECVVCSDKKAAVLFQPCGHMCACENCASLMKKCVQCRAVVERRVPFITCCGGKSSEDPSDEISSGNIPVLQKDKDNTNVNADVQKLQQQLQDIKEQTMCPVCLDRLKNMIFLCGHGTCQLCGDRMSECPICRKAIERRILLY

Target: T1, Acid ceramidase (ASAH1) (mouse (endogenous in primary pancreatic acinar cells of C57BL/6 mice)) (UniProt Q9WV54)
T1 sequence: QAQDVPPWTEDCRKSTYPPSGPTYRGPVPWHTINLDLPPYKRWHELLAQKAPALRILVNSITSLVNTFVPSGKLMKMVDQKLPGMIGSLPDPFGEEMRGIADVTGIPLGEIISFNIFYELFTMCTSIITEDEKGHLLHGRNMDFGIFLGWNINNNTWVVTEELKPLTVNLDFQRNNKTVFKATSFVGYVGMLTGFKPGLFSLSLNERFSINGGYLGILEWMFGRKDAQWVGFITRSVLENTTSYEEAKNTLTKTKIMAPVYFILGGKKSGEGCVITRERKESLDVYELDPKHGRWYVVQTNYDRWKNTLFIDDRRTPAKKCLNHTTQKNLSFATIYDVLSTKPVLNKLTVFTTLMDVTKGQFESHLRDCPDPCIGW
Experiment: affinity purification with mass spectrometry; lysate of primary pancreatic acinar cells (saline or 200 nM cerulein plus 10 ng/mL LPS, 6 h) precipitated with anti-ASAH1 antibody; SDS-PAGE, Coomassie stain; band present in the saline sample cut out and examined by mass spectrometry (n = 1)

- binding: binds
Substance: E3 ligase Mind bomb homolog 1 (MIB1) (from UniProt Q80SY4 1-1006) (enzyme)

Results are given in words; binding and its absence hold for the method and conditions named. Binding seen in cells or lysates may run through a third protein. Here binding means that the protein was enriched with, or labelled near, the bait; the list need not be complete.
